From article PMC7819943, “Rice protein-binding microarrays: a tool to detect cis-acting elements near promoter regions in rice”
This is one part of the list.

Chains of the proteins cited; added tags and fusions are not shown.
UniProt Q0JBA9, entry or part of it: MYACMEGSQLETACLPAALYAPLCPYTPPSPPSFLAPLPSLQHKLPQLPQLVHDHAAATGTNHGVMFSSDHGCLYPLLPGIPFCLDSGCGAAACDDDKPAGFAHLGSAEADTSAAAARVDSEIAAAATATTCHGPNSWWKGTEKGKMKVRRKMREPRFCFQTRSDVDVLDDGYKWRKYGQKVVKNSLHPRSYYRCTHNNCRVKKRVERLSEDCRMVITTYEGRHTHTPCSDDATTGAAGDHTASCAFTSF

molecular target: OsWRKY34 (Oryza sativa, UniProt Q0JBA9 1-250); test: protein-binding microarray (RPBM); PBS, 2% BSA, 51.3 ng/ul salmon testes DNA, 50 uM zinc acetate, 200 nM TF, 25 C, 1 h; high values mean tight binding; conditions: protein: recombinant; tags: N-terminal polyhistidine and DsRed monomer fusion (pET32a); label: CyDye5-dUTP incorporated in the synthesized complementary strand; 3' TTTTT single-stranded linker to array surface; dsDNA, one strand shown
Method in brief: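 Transcription factors were made in E. coli BL21-CodonPlus as N-terminal fusions to a polyhistidine tag and DsRed, then purified on Ni–NTA. After primer extension with Cy5-dUTP and blocking with 2% BSA, a custom Agilent array was exposed for 1 h at 25 °C to 200 nM protein in PBS, 2% BSA, salmon testes DNA and 50 µM zinc acetate. Washed arrays were scanned on an Axon 4000B, and the binding signal is per-feature fluorescence intensity in arbitrary units.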

Row | Sequence | binding signal
1 | ACCCGCCGCTGCCTGCTTCCCTGCTCGCGCCGCGCCGCGCCGGAGTCACCTAGTGCAG | 11100 fluorescence intensity (a.u.)
2 | TCCCCTTGCAGCGAGCTCAATCGATCTCTTTACATCTCGTCGGAGTCACCTAGTGCAG | 10200 fluorescence intensity (a.u.)
3 | TTTCCGCGCGTATGTTTTCCAAACTACTAAACGTTGTATTCGGAGTCACCTAGTGCAG | 8060 fluorescence intensity (a.u.)
4 | ATCGTCGTCGTCATCGGTATCCTTCATTCTGACATGCATTCGGAGTCACCTAGTGCAG | 8620 fluorescence intensity (a.u.)
5 | ATATCTGTTACTTTTTGTCTGGATGGAATTCTTATTCTTACGGAGTCACCTAGTGCAG | 9070 fluorescence intensity (a.u.)
6 | GGGGTGGTTTTGGCTGAGCTGCTTGTGTCCTCTTCTTGCTCGGAGTCACCTAGTGCAG | 18400 fluorescence intensity (a.u.)
7 | ATGTTTGACGCCGTTGATATTTTAGCACATGTTTGACTGTCGGAGTCACCTAGTGCAG | 11400 fluorescence intensity (a.u.)
8 | GTTGCAGATCATTGTTCTCTCTTTGTTGCACTTTTTCGTACGGAGTCACCTAGTGCAG | 8780 fluorescence intensity (a.u.)
9 | TCCAATTTGCTTTCGTCCCGCTTTGAACCTAAAATTTTTTCGGAGTCACCTAGTGCAG | 9710 fluorescence intensity (a.u.)
10 | TCCGTGTCCAATGTTTGACCATCCGTCTTATTTAAAAAAACGGAGTCACCTAGTGCAG | 8070 fluorescence intensity (a.u.)
11 | GATGGATTTCACGGCCTTACATGCGTCCGCGTCGCCTCTGCGGAGTCACCTAGTGCAG | 8320 fluorescence intensity (a.u.)
12 | TCAGTTACCTTGGCTTCAAGCCTCCATATCGCGGTAAAAGCGGAGTCACCTAGTGCAG | 10500 fluorescence intensity (a.u.)
13 | GAGGTGGGTGGGAGGGAGGGACGCGTAGCGGAGGTCGGAGCGGAGTCACCTAGTGCAG | 14700 fluorescence intensity (a.u.)
14 | TGTGTTCCCTTTCGGTACGTTGTATTTCGACCCTGACGTTCGGAGTCACCTAGTGCAG | 8710 fluorescence intensity (a.u.)
15 | CGCTTTTTGTCCAGTTAATTGCCCGTTATAAGCTCGGATTCGGAGTCACCTAGTGCAG | 8350 fluorescence intensity (a.u.)
16 | CACTGCTTTTTGCTATACCTTGTACAAGGGTGTTTAGATTCGGAGTCACCTAGTGCAG | 9530 fluorescence intensity (a.u.)
17 | GCAGGTTGATGCATAGCTCGCGCGCACGCGCCTGTGTCCACGGAGTCACCTAGTGCAG | 9800 fluorescence intensity (a.u.)
18 | ACGCCCGCTCTACTGTCGAAGTATATAAAGTTCATTTCTCCGGAGTCACCTAGTGCAG | 8100 fluorescence intensity (a.u.)
19 | GGCATATTTTCTAGTAAATCAAAATAACTGTTAGGGAGGGCGGAGTCACCTAGTGCAG | 9760 fluorescence intensity (a.u.)
20 | CTCCTCTACTACCACCGCCGCTCTCGTCTCGTCTCGTCTCCGGAGTCACCTAGTGCAG | 11800 fluorescence intensity (a.u.)
21 | TTTCCGGTTTTCCAATATTTCCGATACCATTTTCATTTCCCGGAGTCACCTAGTGCAG | 12800 fluorescence intensity (a.u.)

Rewritten tab-delimited: entries from further up
Row	Sequence	binding signal
2	TCCCCTTGCAGCGAGCTCAATCGATCTCTTTACATCTCGTCGGAGTCACCTAGTGCAG	10200 fluorescence intensity (a.u.)
19	GGCATATTTTCTAGTAAATCAAAATAACTGTTAGGGAGGGCGGAGTCACCTAGTGCAG	9760 fluorescence intensity (a.u.)

Later entries

Row | Sequence | binding signal
22 | TTACCATGGTGCATTTACGGCTGTGATCGCTTTGTTGTACCGGAGTCACCTAGTGCAG | 9370 fluorescence intensity (a.u.)
23 | TGCCTTGATCTCCCACCACTGCCTCAATTTTCACCTACTCCGGAGTCACCTAGTGCAG | 8120 fluorescence intensity (a.u.)
24 | AATCCTATTTTTTTCTATTCGTACTATTCAAAGGTGCTCTCGGAGTCACCTAGTGCAG | 9740 fluorescence intensity (a.u.)
25 | CTAGCAATCCTACCGGTGAAATCATCCCATCCCATCTCATCGGAGTCACCTAGTGCAG | 8390 fluorescence intensity (a.u.)
26 | GCCCATTATAAAAGTATTGTATGCGCACGATCGTCCTCTCCGGAGTCACCTAGTGCAG | 9100 fluorescence intensity (a.u.)
27 | ATGGCAAGTCTAGCTGTCCTTTTTTTTTTTTTTACAATTCCGGAGTCACCTAGTGCAG | 8770 fluorescence intensity (a.u.)
28 | TATCCTTCTACCCATTAGGACAACACAATGACCATTAACACGGAGTCACCTAGTGCAG | 8620 fluorescence intensity (a.u.)
29 | GGGTTGACCATAACCTAAGCTGGTCAAAACTGTTCTTCTGCGGAGTCACCTAGTGCAG | 11200 fluorescence intensity (a.u.)
30 | CCCATGCCGCCGCCGTCGCCGTGATACGTGGGAGCGGCACCGGAGTCACCTAGTGCAG | 8090 fluorescence intensity (a.u.)
31 | ATTTTTGTCACCGTCGTTATTGTGGAGAGCTTTTTATGTTCGGAGTCACCTAGTGCAG | 12300 fluorescence intensity (a.u.)
32 | TCAGTGTTACTACTACTTTCCCACCTTGCCCTCACTACCTCGGAGTCACCTAGTGCAG | 9200 fluorescence intensity (a.u.)
33 | GGCGGTTTGGTTTGTTCTCTCTCGGTCGTCGTCGGCGGCACGGAGTCACCTAGTGCAG | 10400 fluorescence intensity (a.u.)
34 | TAATCGGTCATCTACTTCAACATCTACTCGTAAATCCTCTCGGAGTCACCTAGTGCAG | 9650 fluorescence intensity (a.u.)
35 | TTTGTCTATCGTTTCCTAACCTTATCAACTCCGGCCCTTGCGGAGTCACCTAGTGCAG | 9070 fluorescence intensity (a.u.)
36 | TTTTTCCGGTGACTTTCTCAGTGGTCAAGAGCTTTGTTTTCGGAGTCACCTAGTGCAG | 11500 fluorescence intensity (a.u.)
37 | TGGGTCCCACTACTTTTTTCTTTTGCCTTACTGACATATGCGGAGTCACCTAGTGCAG | 8150 fluorescence intensity (a.u.)
38 | CCCAAATTTCGGGTTCTTGATCTACATGTAGCTACCAATTCGGAGTCACCTAGTGCAG | 8900 fluorescence intensity (a.u.)
39 | TGGTCTTCTAAGTTTCATTCTGCATGGTTATATGGATTTTCGGAGTCACCTAGTGCAG | 11300 fluorescence intensity (a.u.)
40 | GAGCTGATCTTGTTGACTTATTGAACGAAACTCTACACAGCGGAGTCACCTAGTGCAG | 10100 fluorescence intensity (a.u.)
41 | ATGTATGTATGTATAGGTTATTCAGTCTCTTTCTTTGCAACGGAGTCACCTAGTGCAG | 8630 fluorescence intensity (a.u.)
42 | ATGTTCATATGAGGATCCACACGTCAATCCACGTCTCTTCCGGAGTCACCTAGTGCAG | 8120 fluorescence intensity (a.u.)
